Assays:
Assay in all cases: Cytostatic activity against tumor cell lines (cell number by Coulter counter)
Type in all cases: cell-based
human T-lymphocyte (CEM) = details: for TI P. aeruginosa CEM: ratio IC50 (CEM) / BIC50 (P. aeruginosa); for TI S. Typhimurium CEM: ratio IC50 (CEM) / BIC50 (S. Typhimurium)
Experimental: (§1) The IC50 was defined as the compound concentration required to inhibit cell proliferation by 50%. The therapeutic index (TI) was calculated as the ratio of the compound concentration producing toxicity (IC50) to the concentration needed to exert the desired ‘therapeutic’ effect on biofilms of Salmonella and Pseudomonas, indicated by the BIC50 (dose needed to prevent biofilm formation by 50%). The higher the therapeutic index, the broader the safety window of the compound.
(§2) Murine leukemia (L1210), human T-lymphocyte (CEM) and human cervix carcinoma (HeLa) were suspended at 300,000–500,000 cells/mL of culture medium, and 100 µL of a cell suspension was added to 100 µL of an appropriate dilution of the test compounds in 200 µL-wells of 96-well microtiter plates. After incubation at 37 °C for two (L1210), three (CEM) or four (HeLa) days, the cell number was determined using a Coulter counter. The IC50 was defined as the compound concentration required to inhibit cell proliferation by 50%.

murine leukemia (L1210) = details: for TI P. aeruginosa L1210: ratio IC50 (L1210) / BIC50 (P. aeruginosa); for TI S. Typhimurium L1210: ratio IC50 (L1210) / BIC50 (S. Typhimurium)
Experimental: as §1, §2

[1] = system: human cervix carcinoma (HeLa); details: for TI P. aeruginosa HeLa: ratio IC50 (HeLa) / BIC50 (P. aeruginosa); for TI S. Typhimurium HeLa: ratio IC50 (HeLa) / BIC50 (S. Typhimurium)
Experimental: as §1, §2

SMILES	TI P. aeruginosa CEM (human T-lymphocyte (CEM))	TI S. Typhimurium CEM (human T-lymphocyte (CEM))	TI P. aeruginosa L1210 (murine leukemia (L1210))	TI S. Typhimurium L1210 (murine leukemia (L1210))	TI P. aeruginosa HeLa [1]	TI S. Typhimurium HeLa [1]
Nc1ncc(-c2ccccc2)[nH]1 [compound 1]	1.3	0.7	0.9	0.5	2.0	1.1
Nc1ncc(-c2ccc(Cl)cc2)[nH]1 [compound 2]	14.2	3.1	22.1	4.8	20.7	4.5
Nc1ncc(-c2ccc([N+](=O)[O-])cc2)[nH]1 [compound 4]	1.8	3.6	2.4	4.7	3.1	6.1
Nc1ncc(-c2ccc(Br)cc2)[nH]1 [compound 5, 5-(p-bromophenyl)-2-aminoimidazole]	4.3	0.3	3.2	0.2	6.8	0.5
c1ccc(-c2cnc(NC3CCCC3)[nH]2)cc1 [compound 20]	8.7	5.5	0.8	0.5	0.8	0.5
CC(C)CNc1ncc(-c2ccc(Cl)cc2)[nH]1 [compound 22]	330.3	148.7	373.7	168.2	190.6	85.8
Clc1ccc(-c2cnc(NC3CCCC3)[nH]2)cc1 [compound 24]	43.8	134.3	2.6	8.1	2.1	6.5
CCCCNc1ncc(-c2ccc(Br)cc2)[nH]1 [compound 25]	50.3	69.4	12.8	17.7	5.2	7.1
c1ccc(-c2cn(CCCNc3ncc(-c4ccccc4)[nH]3)nn2)cc1 [compound 36]	<1.1	12.4	<0.6	6.1	<0.2	2.0
c1ccc(-c2cn(CCCCNc3ncc(-c4ccccc4)[nH]3)nn2)cc1 [compound 37]	24.2	11.5	11.5	5.4	5.6	2.7
Brc1ccc(-c2cnc(NCCCn3cc(C4CCCCC4)nn3)[nH]2)cc1 [compound 39]	31.7	47.1	1.7	2.5	1.8	2.7
Brc1ccc(-c2cnc(NCCCn3cc(C4CC4)nn3)[nH]2)cc1 [compound 40]	0.5	16.8	0.6	21.9	0.9	33.6

Source: publication PMC6271933, “Evaluation of the Toxicity of 5-Aryl-2-Aminoimidazole-Based Biofilm Inhibitors against Eukaryotic Cell Lines, Bone Cells and the Nematode Caenorhabditis elegans” (Molecules, 2014)
